# Test results as given in the supplement of paper PMC7666118.
# Sequences of proteins named here, by UniProt entry; tags and fusion partners are left off. A change or cut given only in a name is not applied to a line headed by its entry.
# UniProt Q8N584: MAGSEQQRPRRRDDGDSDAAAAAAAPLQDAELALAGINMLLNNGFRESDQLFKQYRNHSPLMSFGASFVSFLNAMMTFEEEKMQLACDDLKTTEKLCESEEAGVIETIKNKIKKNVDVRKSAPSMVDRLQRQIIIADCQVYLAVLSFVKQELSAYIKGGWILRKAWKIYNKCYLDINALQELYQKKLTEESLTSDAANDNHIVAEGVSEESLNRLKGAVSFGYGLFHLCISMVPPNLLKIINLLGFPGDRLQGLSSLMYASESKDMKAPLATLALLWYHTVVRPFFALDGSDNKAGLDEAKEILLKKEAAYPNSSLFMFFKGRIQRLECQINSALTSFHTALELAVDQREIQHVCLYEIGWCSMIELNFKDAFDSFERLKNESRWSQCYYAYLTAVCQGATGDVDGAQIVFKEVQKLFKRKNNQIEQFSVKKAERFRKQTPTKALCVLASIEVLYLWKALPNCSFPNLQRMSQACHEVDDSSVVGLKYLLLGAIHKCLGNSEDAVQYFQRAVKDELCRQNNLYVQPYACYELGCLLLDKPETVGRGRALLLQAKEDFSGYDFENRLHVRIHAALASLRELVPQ
# UniProt P10746: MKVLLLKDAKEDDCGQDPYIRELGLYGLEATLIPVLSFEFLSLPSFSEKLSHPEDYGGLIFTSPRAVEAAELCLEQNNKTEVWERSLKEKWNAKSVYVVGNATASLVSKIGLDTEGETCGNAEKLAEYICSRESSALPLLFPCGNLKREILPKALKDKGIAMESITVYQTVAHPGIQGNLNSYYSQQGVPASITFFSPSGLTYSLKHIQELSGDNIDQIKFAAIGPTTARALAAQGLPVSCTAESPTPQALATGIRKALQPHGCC
# UniProt P11441: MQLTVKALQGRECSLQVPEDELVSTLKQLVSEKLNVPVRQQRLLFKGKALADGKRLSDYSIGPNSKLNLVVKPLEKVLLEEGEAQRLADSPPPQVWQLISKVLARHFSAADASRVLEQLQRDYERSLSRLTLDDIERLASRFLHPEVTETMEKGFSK
# UniProt Q9UMX0, whole entry: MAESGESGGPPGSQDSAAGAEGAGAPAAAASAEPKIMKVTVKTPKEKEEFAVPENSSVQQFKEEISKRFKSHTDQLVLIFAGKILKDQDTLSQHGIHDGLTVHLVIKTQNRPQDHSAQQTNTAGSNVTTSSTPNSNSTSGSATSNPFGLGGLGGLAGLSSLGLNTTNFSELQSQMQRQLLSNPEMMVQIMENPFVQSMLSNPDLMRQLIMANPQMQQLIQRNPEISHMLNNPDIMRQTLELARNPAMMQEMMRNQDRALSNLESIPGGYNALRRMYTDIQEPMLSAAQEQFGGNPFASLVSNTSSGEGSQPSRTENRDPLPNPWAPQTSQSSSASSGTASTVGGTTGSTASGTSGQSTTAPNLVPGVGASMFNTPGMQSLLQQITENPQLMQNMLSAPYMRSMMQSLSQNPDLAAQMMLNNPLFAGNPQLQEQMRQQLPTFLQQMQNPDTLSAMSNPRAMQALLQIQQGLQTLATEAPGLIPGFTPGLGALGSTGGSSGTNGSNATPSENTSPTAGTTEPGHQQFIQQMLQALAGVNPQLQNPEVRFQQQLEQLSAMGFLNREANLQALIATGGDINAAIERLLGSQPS
# UniProt O14949: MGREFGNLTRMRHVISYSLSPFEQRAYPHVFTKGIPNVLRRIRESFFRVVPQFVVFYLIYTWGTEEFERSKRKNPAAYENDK
# UniProt Q96F44: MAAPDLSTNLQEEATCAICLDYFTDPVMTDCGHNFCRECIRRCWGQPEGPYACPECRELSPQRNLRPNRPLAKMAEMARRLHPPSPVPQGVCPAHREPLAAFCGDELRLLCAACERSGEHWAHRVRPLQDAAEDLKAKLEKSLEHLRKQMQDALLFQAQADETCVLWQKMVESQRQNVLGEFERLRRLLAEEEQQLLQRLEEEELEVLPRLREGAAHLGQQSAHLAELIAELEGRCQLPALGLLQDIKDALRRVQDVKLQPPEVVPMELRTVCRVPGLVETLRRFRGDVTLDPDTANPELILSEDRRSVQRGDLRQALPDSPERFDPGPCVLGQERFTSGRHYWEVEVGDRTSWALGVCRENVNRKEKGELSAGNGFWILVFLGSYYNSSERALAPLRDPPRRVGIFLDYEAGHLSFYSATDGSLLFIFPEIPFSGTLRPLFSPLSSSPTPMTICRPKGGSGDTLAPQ
# UniProt Q8IWR1: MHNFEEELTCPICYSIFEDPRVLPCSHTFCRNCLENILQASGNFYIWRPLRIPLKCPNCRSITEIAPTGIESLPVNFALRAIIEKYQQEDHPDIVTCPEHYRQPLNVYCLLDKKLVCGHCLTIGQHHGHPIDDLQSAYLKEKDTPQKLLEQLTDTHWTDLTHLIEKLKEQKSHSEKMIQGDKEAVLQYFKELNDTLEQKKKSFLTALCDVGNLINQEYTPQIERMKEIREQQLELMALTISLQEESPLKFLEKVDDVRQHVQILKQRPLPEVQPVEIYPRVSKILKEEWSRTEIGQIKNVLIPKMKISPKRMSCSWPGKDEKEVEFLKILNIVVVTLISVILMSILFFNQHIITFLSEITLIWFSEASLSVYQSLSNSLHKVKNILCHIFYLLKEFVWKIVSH
# UniProt Q9UPT9: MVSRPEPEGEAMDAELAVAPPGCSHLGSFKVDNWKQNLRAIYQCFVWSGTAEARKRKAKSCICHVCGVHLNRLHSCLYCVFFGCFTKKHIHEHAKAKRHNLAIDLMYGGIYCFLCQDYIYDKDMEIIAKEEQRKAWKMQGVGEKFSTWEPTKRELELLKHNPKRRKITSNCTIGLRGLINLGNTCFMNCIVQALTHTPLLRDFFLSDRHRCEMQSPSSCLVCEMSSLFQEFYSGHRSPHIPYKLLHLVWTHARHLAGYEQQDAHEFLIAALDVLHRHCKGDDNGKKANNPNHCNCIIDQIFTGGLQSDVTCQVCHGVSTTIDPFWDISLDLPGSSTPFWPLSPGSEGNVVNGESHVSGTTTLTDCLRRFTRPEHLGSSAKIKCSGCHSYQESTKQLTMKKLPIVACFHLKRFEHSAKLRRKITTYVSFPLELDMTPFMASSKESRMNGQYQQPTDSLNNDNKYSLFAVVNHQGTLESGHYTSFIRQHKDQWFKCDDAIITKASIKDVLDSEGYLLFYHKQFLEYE
# UniProt Q8TBC4: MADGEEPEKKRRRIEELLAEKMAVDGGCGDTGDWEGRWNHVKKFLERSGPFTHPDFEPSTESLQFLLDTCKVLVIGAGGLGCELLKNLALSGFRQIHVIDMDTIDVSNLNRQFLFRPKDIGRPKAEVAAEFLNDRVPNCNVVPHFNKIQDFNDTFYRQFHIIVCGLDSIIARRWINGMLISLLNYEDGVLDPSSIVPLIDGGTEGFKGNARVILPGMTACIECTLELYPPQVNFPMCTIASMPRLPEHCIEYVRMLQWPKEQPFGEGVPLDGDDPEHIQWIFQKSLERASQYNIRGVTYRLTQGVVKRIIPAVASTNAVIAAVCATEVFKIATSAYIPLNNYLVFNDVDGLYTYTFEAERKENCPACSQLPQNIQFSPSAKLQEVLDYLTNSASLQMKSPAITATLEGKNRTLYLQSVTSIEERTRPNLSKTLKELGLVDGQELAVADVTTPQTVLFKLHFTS
# UniProt Q96AE7: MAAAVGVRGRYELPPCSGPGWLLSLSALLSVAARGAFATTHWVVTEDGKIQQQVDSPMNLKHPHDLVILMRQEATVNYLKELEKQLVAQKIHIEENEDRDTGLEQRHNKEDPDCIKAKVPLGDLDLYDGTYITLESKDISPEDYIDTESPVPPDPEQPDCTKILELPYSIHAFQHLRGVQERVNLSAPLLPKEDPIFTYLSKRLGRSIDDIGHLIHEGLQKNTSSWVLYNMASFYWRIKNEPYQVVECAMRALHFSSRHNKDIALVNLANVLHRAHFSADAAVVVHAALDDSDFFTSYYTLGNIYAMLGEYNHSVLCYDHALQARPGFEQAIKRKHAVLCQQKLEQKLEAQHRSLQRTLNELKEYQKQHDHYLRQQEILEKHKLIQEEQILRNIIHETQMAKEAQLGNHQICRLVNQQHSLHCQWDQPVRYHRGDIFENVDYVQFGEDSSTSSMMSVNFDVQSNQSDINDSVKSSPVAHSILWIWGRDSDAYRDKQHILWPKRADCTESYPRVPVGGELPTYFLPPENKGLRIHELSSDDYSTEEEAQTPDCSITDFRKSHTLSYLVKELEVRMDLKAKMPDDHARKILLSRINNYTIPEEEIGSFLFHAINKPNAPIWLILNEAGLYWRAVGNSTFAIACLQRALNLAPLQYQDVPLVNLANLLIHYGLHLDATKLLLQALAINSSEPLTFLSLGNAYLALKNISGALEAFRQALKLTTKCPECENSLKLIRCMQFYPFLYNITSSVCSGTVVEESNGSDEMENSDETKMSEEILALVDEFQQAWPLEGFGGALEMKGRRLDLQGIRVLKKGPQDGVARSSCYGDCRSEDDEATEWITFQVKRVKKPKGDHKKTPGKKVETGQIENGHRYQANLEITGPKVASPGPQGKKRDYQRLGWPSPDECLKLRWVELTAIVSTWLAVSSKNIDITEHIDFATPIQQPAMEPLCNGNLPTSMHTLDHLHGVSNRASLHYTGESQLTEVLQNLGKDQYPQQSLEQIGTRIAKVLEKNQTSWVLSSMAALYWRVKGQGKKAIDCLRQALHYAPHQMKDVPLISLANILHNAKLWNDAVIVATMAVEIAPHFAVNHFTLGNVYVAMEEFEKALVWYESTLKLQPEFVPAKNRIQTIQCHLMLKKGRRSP
# UniProt Q8WVT3: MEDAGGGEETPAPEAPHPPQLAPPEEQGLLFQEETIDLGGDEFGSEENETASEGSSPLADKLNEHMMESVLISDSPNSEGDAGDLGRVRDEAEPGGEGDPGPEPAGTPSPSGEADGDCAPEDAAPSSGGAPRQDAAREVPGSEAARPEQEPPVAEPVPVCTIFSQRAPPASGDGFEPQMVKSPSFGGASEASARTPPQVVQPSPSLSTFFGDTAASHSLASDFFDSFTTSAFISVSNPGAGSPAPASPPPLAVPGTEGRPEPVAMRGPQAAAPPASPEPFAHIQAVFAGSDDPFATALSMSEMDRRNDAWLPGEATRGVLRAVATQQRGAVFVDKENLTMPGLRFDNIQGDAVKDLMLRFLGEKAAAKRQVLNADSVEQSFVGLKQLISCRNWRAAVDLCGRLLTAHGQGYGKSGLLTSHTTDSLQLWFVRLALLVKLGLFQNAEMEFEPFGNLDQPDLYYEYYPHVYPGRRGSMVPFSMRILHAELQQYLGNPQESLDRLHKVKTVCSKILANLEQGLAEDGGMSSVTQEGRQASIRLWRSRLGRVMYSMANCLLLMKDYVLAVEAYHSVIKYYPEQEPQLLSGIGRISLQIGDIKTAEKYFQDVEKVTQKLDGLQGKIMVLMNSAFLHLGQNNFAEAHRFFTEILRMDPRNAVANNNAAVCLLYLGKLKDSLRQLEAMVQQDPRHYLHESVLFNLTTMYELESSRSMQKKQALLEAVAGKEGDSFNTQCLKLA
# UniProt Q9BYV8: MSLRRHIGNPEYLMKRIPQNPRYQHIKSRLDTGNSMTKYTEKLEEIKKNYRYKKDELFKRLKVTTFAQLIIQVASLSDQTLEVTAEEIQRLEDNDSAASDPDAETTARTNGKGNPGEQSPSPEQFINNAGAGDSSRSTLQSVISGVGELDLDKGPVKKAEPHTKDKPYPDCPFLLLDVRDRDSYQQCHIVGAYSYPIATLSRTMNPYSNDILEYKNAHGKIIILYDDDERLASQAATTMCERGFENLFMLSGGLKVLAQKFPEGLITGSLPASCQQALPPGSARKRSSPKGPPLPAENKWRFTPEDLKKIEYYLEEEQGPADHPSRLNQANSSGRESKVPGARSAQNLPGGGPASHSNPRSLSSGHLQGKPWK
# UniProt Q9HA47: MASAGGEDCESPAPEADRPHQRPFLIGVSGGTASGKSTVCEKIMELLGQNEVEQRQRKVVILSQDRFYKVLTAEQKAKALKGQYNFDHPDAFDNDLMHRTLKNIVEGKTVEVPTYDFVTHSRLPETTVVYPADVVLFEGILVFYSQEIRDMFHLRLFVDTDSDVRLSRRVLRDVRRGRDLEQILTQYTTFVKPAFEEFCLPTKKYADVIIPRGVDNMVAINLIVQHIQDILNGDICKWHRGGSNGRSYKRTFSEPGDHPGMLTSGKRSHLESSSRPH
# UniProt Q9H3M7: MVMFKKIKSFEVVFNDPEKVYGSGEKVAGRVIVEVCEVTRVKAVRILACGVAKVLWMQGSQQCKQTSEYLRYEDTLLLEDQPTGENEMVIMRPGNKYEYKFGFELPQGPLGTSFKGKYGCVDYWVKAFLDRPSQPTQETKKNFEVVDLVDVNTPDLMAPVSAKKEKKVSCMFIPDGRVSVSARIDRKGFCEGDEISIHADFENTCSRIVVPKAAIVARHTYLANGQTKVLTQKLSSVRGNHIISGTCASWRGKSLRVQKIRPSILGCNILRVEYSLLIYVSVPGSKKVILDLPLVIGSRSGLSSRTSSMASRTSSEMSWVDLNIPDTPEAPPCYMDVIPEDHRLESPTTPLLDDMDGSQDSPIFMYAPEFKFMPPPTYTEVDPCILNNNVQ
# The other results are listed elsewhere or left out.
# Compound: COc1ccc(Cn2ccc3ccc(C(=O)NO)cc32)cc1
# Test: dose-dependent thermal stabilisation call (2D-TPP, DLPTP, 10% FDR) (binary (1 = stabilised)); higher = stabilised by the compound
# Details: system: HL-60 intact cells; concentration range 0.04-10 µM
row,Target,dose-dependent thermal stabilisation call
1,TTC4 (UniProt O95801),inactive: 0
2,TRIM65 (UniProt Q6PJ69),inactive: 0
3,TTC39C (UniProt Q8N584),inactive: 0
4,TRADD (UniProt Q15628),inactive: 0
5,UROS (UniProt P10746),inactive: 0
6,TSEN54 (UniProt Q7Z6J9),inactive: 0
7,TTC9C (UniProt Q8N5M4),inactive: 0
8,TRUB1 (UniProt Q8WWH5),inactive: 0
9,UBL4A (UniProt P11441),inactive: 0
10,UBQLN2 (UniProt Q9UHD9),inactive: 0
11,UBQLN1 (UniProt Q9UMX0),inactive: 0
12,UQCRQ (UniProt O14949),inactive: 0
13,TUBGCP2 (UniProt Q9BSJ2),inactive: 0
14,TPRKB (UniProt Q9Y3C4),inactive: 0
15,TTC26,inactive: 0
16,TRA2A (UniProt Q13595),inactive: 0
17,TSC22D2 (UniProt O75157),inactive: 0
18,TRIM11 (UniProt Q96F44),inactive: 0
19,TRIM59 (UniProt Q8IWR1),inactive: 0

row,Target,dose-dependent thermal stabilisation call
1,USP22 (UniProt Q9UPT9),inactive: 0
2,UBE2N (UniProt P61088),inactive: 0
3,TTF2 (UniProt Q9UNY4),inactive: 0
4,UBA3 (UniProt Q8TBC4),inactive: 0
5,TXNL1 (UniProt O43396),inactive: 0
6,TTC17 (UniProt Q96AE7),inactive: 0
7,USP15 (UniProt Q9Y4E8),inactive: 0
8,TTC5 (UniProt Q8N0Z6),inactive: 0
9,UNC45A (UniProt Q9H3U1),inactive: 0
10,UQCRFS1 (UniProt P47985),inactive: 0
11,TTC15 (UniProt Q8WVT3),inactive: 0
12,TSGA14 (UniProt Q9BYV8),inactive: 0
13,UGCGL1 (UniProt Q9NYU2),inactive: 0
14,TUBGCP4 (UniProt Q9UGJ1),inactive: 0
15,UCK1 (UniProt Q9HA47),inactive: 0
16,TXNDC10 (UniProt Q96JJ7),inactive: 0
17,TXNIP (UniProt Q9H3M7),inactive: 0
18,TSPAN3 (UniProt O60637),inactive: 0
19,USP19 (UniProt O94966),inactive: 0

# Looked up one by one from the list above, two records:
row,Target,dose-dependent thermal stabilisation call
4,UBA3 (UniProt Q8TBC4),inactive: 0
17,TXNIP (UniProt Q9H3M7),inactive: 0
